2 molecules from patent US20260193317A1, “COMBINATION THERAPY WITH ACTRIIB RECEPTOR VARIANTS AND GLP-1 AGONISTS” (35PHARMA Inc., priority 2023, published 2026) can be followed below.

The data set relates to DIO mice. Nature of the data set: Body composition in high fat diet mice, alone and in combination with incretin mimetics. Format: in vivo. The settings on record: 21 days.

As for “P1229: hActRIIB L33W, 14 aa linker, IgG1-DL Fc; SEQ ID 211”, the “food consumption / food intake” value is reported as “did not significantly affect food intake”.

B1: P1307: murine version of bimagrumab, an antibody targeting ActRIIB and ActRIIA; heavy chain SEQ ID NO: 376, light chain SEQ ID NO: 377 (antibody)
heavy: MDWTWRILFLVAAATGTHAQVQLVQSGAEVKKPGASVKVSCKASGYTFTSSYINWVRQAPGQGLEWMGTINPVSGSTSYAQKFQGRVTMTRDTSISTAYMELSSLRSEDTAVYYCARGGWFDYWGQGTLVTVSSAKTTAPSVYPLAPVCGDTTGSSVTLGCLVKGYFPEPVTLTWNSGSLSSGVHTFPAVLQSDLYTLSSSVTVTSSTWPSQSITCNVAHPASSTKVDKKIEPRGPTIKPCPPCKCPAPNAAGGPSVFIFPPKIKDVLMISLSPIVTCVVVDVSEDDPDVQISWFVNNVEVHTAQTQTHREDYNSTLRVVSALPIQHQDWMSGKEFKCKVNNKDLPAPIERTISKPKGSVRAPQVYVLPPPEEEMTKKQVTLTCMVTDFMPEDIYVEWTNNGKTELNYKNTEPVLDSDGSYFMYSKLRVEKKNWVERNSYSCSVVHEGLHNHHTTKSFSRTPGK
light: MVLQTQVFISLLLWISGAYGDIALTQPASVSGSPGQSITISCTGTSSDVGSYNYVNWYQQHPGKAPKLMIYGVSKRPSGVSNRFSGSKSGNTASLTISGLQAEDEADYYCGTFAGGSYYGVFGGGTKLTVLGQPKSTPTLTVFPPSSEELKENKATLVCLISNFSPSGVTVAWKANGTPITQGVDTSNPTKEGNKFMASSFLHLTSDQWRSHNSFTCQVTHEGDTVEKSLSPAECL
B1: the “food consumption / food intake” value is given as “did not significantly affect food intake”.
